Test results published in PubChem BioAssay AID2685 (National Center for Advancing Translational Sciences (NCATS), 2010).
Some of the results follow. These are further read-outs of the screen, such as a control signal, another cell line or another target. No call is given for them. Most of these compounds were active or inconclusive in the main read-out, so they are no random draw. Words in brackets tell the shape of the fitted curve; partial curves, single points and poor fits give uncertain potencies.

Assay: qHTS Assay for Lipid Storage Modulators in Drosophila S3 Cells;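 as to cell number change: cells counted by Cell Tracker Red CMTPX staining in the red channel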
Settings: BODIPY lipid droplet fluorescence, 18-24 h; for cell number change: measured here: cell count max response, cells fed with added oleic acid
In short: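 Drosophila S3 cells got compounds at several concentrations plus oleic acid (400 uM solution). Laser-scanning cytometry with 488 nm excitation read lipid droplets at 500-530 nm and cells at 575-640 nm. Percent activity was relative to 20 uM Triacsin C.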

[1] = measured here: lipid fluorescence (Fed channel) AC50, cells fed with added oleic acid
[2] = measured here: cell number channel AC50, cells fed with added oleic acid

Row | SMILES | cell number change [%] | AC50 [1] | AC50 [2]
1 | O=C(COC(=O)COc1ccc(Cl)cc1)NC1CCS(=O)(=O)C1 (stereo not given) | 11.5 | 0.00461 µM [rising, full curve, poor fit] | –
2 | c1ccc2c(c1)CCCN2Cc1nnc2n1CCCCC2 | -8.78 | 6.51 µM [rising, single point] | –
3 | O=C(Nc1ccc2oc(-c3ccncc3)nc2c1)c1ccc([N+](=O)[O-])o1 | -13.3 | 6.51 µM [rising, single point] | –
4 | CNC(=O)COc1ccc2oc3c(c2c1)CCCC3 | 3.33 | 0.366 µM [rising, partial curve] | –
5 | COc1ccccc1-c1cnn2c(NCCc3ccccc3)cc(C)nc12 | 33.1 | – | 0.00411 µM [rising, full curve, poor fit]
6 | O=C(CN1C(=O)NC2(CCc3ccccc32)C1=O)c1ccc(F)cc1 (stereo not given) | 9.22 | 32.6 µM [falling, single point] | –
7 | O=C(c1ccccc1)N1N=C(C(F)(F)F)CC1(O)c1ccccc1O (stereo not given) | 17.5 | 10.3 µM [rising, partial curve, poor fit] | –
8 | COc1ccc2cc(CCNS(=O)(=O)c3ccc(NC(C)=O)cc3)c(=O)[nH]c2c1 | 12.2 | – | –
9 | c1ccc(-c2csc(Nc3cccnc3)n2)nc1 | -2.11 | 0.231 µM [rising, full curve, poor fit] | –
10 | O=C(C1CCN(CCCc2ccccc2)CC1)N(CCc1ccccc1)Cc1ccccc1 | -38.9 | 29.1 µM [falling, single point] | 32.6 µM [falling, single point]
11 | CCn1c(CCNC(=O)c2ccc(OC)cc2)nnc1SCc1ccc(Cl)cc1Cl | 9.84 | 18.4 µM [falling, partial curve] | –
12 | CC1=NN(C(=O)Cn2ccc([N+](=O)[O-])n2)C(O)(C(F)(F)F)C1 (stereo not given) | -29.7 | 1.46 µM [falling, full curve] | –
13 | CC(=O)NC(CCS(C)(=O)=O)C(=O)Nc1cc(C)ccc1C (stereo not given) | – | 6.51 µM [falling, single point] | –
14 | Cc1cc(C)n2nc(C(=O)Nc3ccc(S(=O)(=O)N4CCCCC4)cc3)nc2n1 | -15.8 | 18.4 µM [falling, partial curve] | –
15 | COc1ccccc1C(=O)N1CCN=C1SC | -59.2 | – | 25.9 µM [falling, partial curve]
16 | Cc1ccc(S(=O)(=O)N(Cc2cc3ccccc3[nH]c2=O)CC2CCCO2)cc1 (stereo not given) | -30.3 | 20 µM [falling, single point] | 1.84 µM [falling, full curve]
17 | CCc1ccc(N2CC(C(=O)Nc3cccnc3)CC2=O)cc1 (stereo not given) | 4.97 | 0.82 µM [rising, full curve, poor fit] | –
18 | S=c1[nH]nc(CSCCOc2ccccc2)o1 | -7.13 | – | –
19 | CCOC(=O)c1nn(-c2ccccc2)c(=O)cc1OCC(=O)Nc1cccc(OC)c1 | 32 | – | 2.31 µM [rising, full curve, poor fit]
20 | COc1ccc2nc(NC(=O)C3CCN(C(=O)c4ccco4)CC3)sc2c1 | 2.1 | – | –

From compound 12 to 16, copied from above:
Row | SMILES | cell number change [%] | AC50 [1] | AC50 [2]
12 | CC1=NN(C(=O)Cn2ccc([N+](=O)[O-])n2)C(O)(C(F)(F)F)C1 (stereo not given) | -29.7 | 1.46 µM [falling, full curve] | –
13 | CC(=O)NC(CCS(C)(=O)=O)C(=O)Nc1cc(C)ccc1C (stereo not given) | – | 6.51 µM [falling, single point] | –
14 | Cc1cc(C)n2nc(C(=O)Nc3ccc(S(=O)(=O)N4CCCCC4)cc3)nc2n1 | -15.8 | 18.4 µM [falling, partial curve] | –
15 | COc1ccccc1C(=O)N1CCN=C1SC | -59.2 | – | 25.9 µM [falling, partial curve]
16 | Cc1ccc(S(=O)(=O)N(Cc2cc3ccccc3[nH]c2=O)CC2CCCO2)cc1 (stereo not given) | -30.3 | 20 µM [falling, single point] | 1.84 µM [falling, full curve]

Next compounds follow.

Row | SMILES | cell number change [%] | AC50 [1] | AC50 [2]
21 | COc1ccc(CCNC(=O)c2ccc3c(c2)N(Cc2ccc(F)cc2)CCS3)cc1OC | -35.8 | 0.184 µM [falling, partial curve] | 9.2 µM [falling, partial curve, poor fit]
22 | Cn1c(-c2ccc(F)cc2)cc2onc(-c3ccccc3Cl)c2c1=O | -23.4 | 0.461 µM [rising, partial curve, poor fit] | –
23 | O=C(OCn1ncc(Br)c(Br)c1=O)c1ccccc1Cl | -92.3 | 0.731 µM [falling, single point] | 16.4 µM [falling, partial curve]
24 | Cc1cc(C)cc(NC(=O)c2cccc3c2C(=O)N(C2CCCCC2)C3)c1 | – | 5.17 µM [rising, single point] | –
25 | CC(=O)NCc1ccc(-c2csc(NC(=O)CCCc3nc4ccccc4c(=O)[nH]3)n2)cc1 | -5.36 | 6.51 µM [falling, single point] | –
26 | CC(C(=O)N(C)C1CCS(=O)(=O)C1)N1C(=O)/C(=C/c2cccs2)SC1=S (stereo not given) | 22.9 | – | –
27 | CCCCN=C1NN=C(c2cccc([N+](=O)[O-])c2)CS1 | 13.6 | 14.6 µM [rising, partial curve] | 0.0291 µM [falling, full curve, poor fit]
28 | COc1ccc(/C=N/n2c(-c3ccccc3)n[nH]c2=S)cc1 | -15.7 | 0.58 µM [rising, single point] | –
29 | CCNC(=S)NNC(=O)c1cc(C)nc2ccccc12 | 10.1 | 29.1 µM [rising, single point] | –
30 | CCCN1C(=O)c2ccccc2NC1c1ccc(C)cc1 (stereo not given) | 11.6 | 1.84 µM [rising, partial curve, poor fit] | –
31 | COCCNc1nc(-c2cc3ccccc3o2)cs1 | – | 18.4 µM [rising, single point] | –
32 | Cc1ccc(C)c(NC(=S)NCc2cccn2C)c1 | -8.99 | 20.6 µM [falling, single point] | –
33 | CCc1c(C)sc(NC(=O)Cn2nc(C)c([N+](=O)[O-])c2C)c1C(N)=O | -10.1 | 0.366 µM [falling, partial curve, poor fit] | 0.146 µM [falling, full curve, poor fit]
34 | O=C(Nc1cccnc1)c1cc(-c2ccc(Cl)c(Cl)c2)on1 | 11.8 | 2.31 µM [rising, full curve] | –
35 | CCC(=O)Nc1cc(Cl)ccc1N1CCN(C(=O)CC)CC1 | – | 0.461 µM [rising, partial curve, poor fit] | –
36 | O=C(O)CSc1cc(NS(=O)(=O)c2ccc(Cl)cc2)c2ccccc2c1O | -9.72 | 0.58 µM [falling, single point] | –
37 | COc1ccc(CCNC(=O)CSc2nnc(CNC(=O)c3c(F)cccc3Cl)o2)cc1OC | -10.2 | – | –
38 | O=C1C2=C(NC(=S)NC2c2ccc(Cl)cc2)NC(c2ccc(Cl)cc2)N1c1ccc(Cl)cc1 (stereo not given) | -53.8 | 29.1 µM [falling, single point] | 29.1 µM [falling, single point]
39 | Nc1c(N(Cc2ccco2)C(=O)c2ccc(Cl)cc2)c(=O)[nH]c(=O)n1Cc1ccccc1 | -20.9 | 7.31 µM [rising, full curve, poor fit] | –
40 | COc1ccc(CNC(=O)COC(=O)c2ccc(F)c(S(=O)(=O)N3CCCCC3)c2)cc1OC | -9.96 | 23.1 µM [falling, single point] | –

Row | SMILES | cell number change [%] | AC50 [1] | AC50 [2]
41 | Cc1cc2c(c(=O)o1)C(CCC1CCCCC1)C(C#N)=C(N)O2 (stereo not given) | 0.234 | 6.51 µM [falling, single point] | –
42 | O=C(NCCC1=CCCCC1)c1ccc2c(=O)n3c(nc2c1)CCCCC3 | – | 0.92 µM [falling, full curve] | –
43 | Cc1nc2ccccc2c(=O)n1Nc1cccc(Cl)c1 | 23.8 | 0.058 µM [rising, full curve, poor fit] | –
44 | COc1cccc(NC(=O)c2cccc(C(=O)Nc3cccc(OC)c3)n2)c1 | -23.3 | 7.31 µM [falling, partial curve] | –
45 | O=C(CN1CCCN(S(=O)(=O)c2ccc(Br)s2)CC1)Nc1ccc(Cl)cc1 | 86.8 | – | 20.6 µM [rising, single point]
46 | Cc1ccc2[nH]c(=O)c(COC(=O)c3ccccn3)cc2c1 | -15 | 23.1 µM [rising, single point] | –
47 | O=C(CSCc1cnn(-c2ccccc2)c1-n1cccc1)NCC1CCCO1 (stereo not given) | 10 | 0.00411 µM [rising, full curve, poor fit] | –
48 | COc1ccc2[nH]cc(C(=O)C(=O)N3CCCCC3)c2c1 | 15.1 | – | –
49 | CCC1CCCCN1c1ccc([N+](=O)[O-])cc1/C=N/NC(=O)Cn1c2ccccc2c(=O)c2ccccc21 (stereo not given) | 49.9 | – | 25.9 µM [rising, single point]
50 | Cc1ccccc1NC(=O)CSc1ccncc1 | -54.2 | 5.17 µM [falling, full curve] | 5.8 µM [falling, full curve]
51 | C=CCN(C(=O)c1csnn1)C(C(=O)NC1CCCC1)c1ccc(OC)cc1 (stereo not given) | -2.56 | 29.1 µM [rising, single point] | –
52 | CCc1ccc(NC(=O)CN(c2cccc(C)c2)S(C)(=O)=O)cc1 | – | 13 µM [rising, partial curve] | 6.51 µM [rising, single point]
53 | COc1ccc(CCN2CC(C(=O)OCC(=O)Nc3c(C)nn(-c4ccccc4)c3C)CC2=O)cc1OC (stereo not given) | 2.81 | – | –
54 | Cc1ccc(S(=O)(=O)NCC(=O)N2CCOCCOCCOCCOCC2)cc1 | 25.7 | 0.116 µM [rising, full curve, poor fit] | –
55 | Brc1ccc(-c2nnc3ccc(Nc4ccccc4)nn23)cc1 | 14.9 | 0.259 µM [rising, full curve, poor fit] | –
56 | c1ccc2c(c1)OCCOCCOCCO2 | – | 6.51 µM [rising, single point] | –
57 | O=C(Nc1ccc(-c2cn3ccccc3n2)cc1)c1ccc(Cl)cc1 | -22.4 | 29.1 µM [falling, single point] | –
58 | COC(=O)c1nc(N)sc1-c1ccccc1 | – | 0.651 µM [rising, partial curve] | 0.58 µM [rising, partial curve]
59 | C=CCSc1nc(C)c(CC(=O)OCC(C)C)c(=O)[nH]1 | -31.4 | 1.64 µM [falling, partial curve] | 32.6 µM [falling, single point]
60 | Cc1ncc([N+](=O)[O-])n1CC(=O)Nc1ccc(OC(F)(F)Cl)cc1 | -1.39 | – | –
